Data source: PubChem BioAssay AID1508597 (Cure First, 2020)
Screen: 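Knock-downs altering ovarian cancer cell survival with or without PARP inhibitor rucaparib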 (primary screen). System: human ovarian carcinoma lines grown from tumours: OCI-P5x (papillary serous) and OCI-C5x (clear cell). Reagent: siRNA pool against human genes, 1.25 pmol siRNA per well. Timing: 72 h or 96 h, depending on the cell culture. Conditions: rucaparib 20 µM (about IC30) or vehicle, present until read-out. Rucaparib or vehicle: Vehicle. Cell line: OCI-P5x (serous). Measurement: 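Luminescent ATP-based viability assay read 72 or 96 h after transfection, depending on culture, given as normalised percent viability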. Scale: viability, normalised: higher = more viable cells remaining. Hit rule: 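a well counts as a hit if its normalised viability is under 80 percent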. Meaning of the calls: active = viability under 80%; inactive = viability 80% or more.
This is a random part of the about 2,100 reagents, under one of the conditions tested. 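Calls flag viability under 80% in either arm, not effects specific to rucaparib; the reference for percent is not stated.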 Unmarked entries are inactive. Some reagents were tested in more than one well and are listed for each. Not stated in the record: the 100% reference.

target gene	PubChem SID	technical replicate	viability, normalised (%)
ITPKA (inositol-trisphosphate 3-kinase A)	SID405527875	1	75.2 (active)
ITPKA (inositol-trisphosphate 3-kinase A)	SID405527875	2	58.9 (active)
ITPKA (inositol-trisphosphate 3-kinase A)	SID405527875	3	67 (active)
RCOR2 (REST corepressor 2)	SID405527240	1	68 (active)
RCOR2 (REST corepressor 2)	SID405527240	2	73 (active)
RCOR2 (REST corepressor 2)	SID405527240	3	155
SPHK1 (sphingosine kinase 1)	SID405527656	1	64.6 (active)
SPHK1 (sphingosine kinase 1)	SID405527656	2	55.9 (active)
SPHK1 (sphingosine kinase 1)	SID405527656	3	66.7 (active)
STK32A (serine/threonine kinase 32A)	SID405527502	1	101
STK32A (serine/threonine kinase 32A)	SID405527502	2	89.6
STK32A (serine/threonine kinase 32A)	SID405527502	3	72.6 (active)
PRKAA2 (protein kinase AMP-activated catalytic subunit alpha 2)	SID405527382	1	80.5
PRKAA2 (protein kinase AMP-activated catalytic subunit alpha 2)	SID405527382	2	79.4 (active)
PRKAA2 (protein kinase AMP-activated catalytic subunit alpha 2)	SID405527382	3	81.3
STK16 (serine/threonine kinase 16)	SID405527824	1	69.2 (active)
STK16 (serine/threonine kinase 16)	SID405527824	2	80.3
STK16 (serine/threonine kinase 16)	SID405527824	3	34.2 (active)
CHMP2B (charged multivesicular body protein 2B)	SID405528114	1	78 (active)
CHMP2B (charged multivesicular body protein 2B)	SID405528114	2	79.5 (active)
CHMP2B (charged multivesicular body protein 2B)	SID405528114	3	70.6 (active)
SOX2 (SRY-box transcription factor 2)	SID405526444	1	73.8 (active)
SOX2 (SRY-box transcription factor 2)	SID405526444	1	52.6 (active)
SOX2 (SRY-box transcription factor 2)	SID405526444	2	65 (active)
SOX2 (SRY-box transcription factor 2)	SID405526444	2	49.1 (active)
SOX2 (SRY-box transcription factor 2)	SID405526444	3	56.4 (active)
SOX2 (SRY-box transcription factor 2)	SID405526444	3	53 (active)
RCOR3 (REST corepressor 3)	SID405527241	1	77.8 (active)
RCOR3 (REST corepressor 3)	SID405527241	2	80.7
RCOR3 (REST corepressor 3)	SID405527241	3	125
METTL8 (methyltransferase 8, tRNA N3-cytidine)	SID405527008	1	53.7 (active)
METTL8 (methyltransferase 8, tRNA N3-cytidine)	SID405527008	2	60.8 (active)
METTL8 (methyltransferase 8, tRNA N3-cytidine)	SID405527008	3	56.5 (active)
TRIO (trio Rho guanine nucleotide exchange factor)	SID405527732	1	114
TRIO (trio Rho guanine nucleotide exchange factor)	SID405527732	2	93.7
TRIO (trio Rho guanine nucleotide exchange factor)	SID405527732	3	76.7 (active)
MYC (MYC proto-oncogene, bHLH transcription factor)	SID405527045	1	43.3 (active)
MYC (MYC proto-oncogene, bHLH transcription factor)	SID405527045	2	45.6 (active)
MYC (MYC proto-oncogene, bHLH transcription factor)	SID405527045	3	51.3 (active)

Part of the list above in another layout:
{"target gene": "CHMP2B (charged multivesicular body protein 2B)", "PubChem SID": "SID405528114", "technical replicate": "3", "viability, normalised (%)": "70.6 (active)"}
{"target gene": "SOX2 (SRY-box transcription factor 2)", "PubChem SID": "SID405526444", "technical replicate": "1", "viability, normalised (%)": "73.8 (active)"}
